Assay results taken from PMC8934857.

T1: Annexin A1 (ANXA1) (human (endogenous in U251 MG)) (UniProt P04083)
T1 sequence: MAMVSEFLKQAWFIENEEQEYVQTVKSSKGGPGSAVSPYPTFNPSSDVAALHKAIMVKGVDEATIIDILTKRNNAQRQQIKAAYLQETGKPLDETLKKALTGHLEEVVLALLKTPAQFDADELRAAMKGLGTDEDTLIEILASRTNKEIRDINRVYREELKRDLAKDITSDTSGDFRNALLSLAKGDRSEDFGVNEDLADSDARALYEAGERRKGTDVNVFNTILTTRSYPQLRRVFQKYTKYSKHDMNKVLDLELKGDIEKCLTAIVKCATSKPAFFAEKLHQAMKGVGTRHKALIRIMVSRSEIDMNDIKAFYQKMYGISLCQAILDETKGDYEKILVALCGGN

B1: Annexin A1 (ANXA1) (protein, UniProt P04083 1-346)
chain: T1 sequence

Key:
[1] = target: T1, Annexin A1 (ANXA1) (human (endogenous in U251 MG)); experiment: co-IP; endogenous co-IP from U251 MG cell lysate (medium-strength lysis buffer); anti-ANXA1 or anti-TNFR1 antibody overnight at 4°C, Protein A/G PLUS-Agarose, IgG as control; western blot
[2] = target: Tumour necrosis factor receptor 1 (TNFR1) (human (endogenous in U251 MG)); experiment: as above

Molecule	binding [1]	binding [2]
Tumour necrosis factor receptor 1 (TNFR1) (human (endogenous in U251 MG))	binds	
B1		binds

No constants are given. Whether binding was seen depends on the method and setting. Binding seen in cells or lysates may run through a third protein. Binding can be weak; no strength is given.
